The record followed here is patent US20140296707A1, “LUMINESCENT COMPOSITION AS BIOMARKER IN A BIRD'S EGG, CORRESPONDENCE DEVICE AND METHOD” (priority 2010, published 2014).

For the data set, the system named is fertilized eggs at 18.5 days of incubation. The data set is described as follows: Determination of the optimal concentration of luminescent compound and the optimal acquisition time of the signal after in ovo injection. Conditions: 24 fertilized eggs at 18.5 days of incubation. It is filed as in vivo, bird.

No dose or concentration is given here for some results.

On to `CC1(C)C(/C=C/C=C/C=C/C=C2\N(CCCCS(=O)(=O)[O-])c3ccc4ccccc4c3C2(C)C)=[N+](CCCCS(=O)(=O)[O-])c2ccc3ccccc3c21.[Na+]` [indocyanine green], for which the “optimal concentration of luminescent compound (Copt)” value (720 images analyzed) is recorded as 50 micromoles per litre. In addition, the “optimal acquisition time of the signal (Topt)” value (camera image capture under laser excitation) worked out at 90 s.
